Taken from: PubChem BioAssay AID1259308 (NCATS, 2017)
Shown is an unselected part of about 59,000 reagents tested. Over the whole deposit, about 1,510 (2.6%) got an active call. 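Calls use total luciferase alone and ignore viability, so some active siRNAs may act by altering cell number.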 Not all columns of the deposit are shown.

- Test: 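Knock-downs that increase output of a recombinant reporter protein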 (primary screen)
- System: human HEK293 embryonic kidney cells stably expressing firefly luciferase (HEK-CMV-Luc2-Hygro)
- Knock-down reagent: single siRNA against human genes, 0.8 pmol siRNA per well
- Duration: 72 h
- Measurement: 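Luciferase light (ONE-Glo) measured on one replicate plate set and viability (CellTiter-Glo) on the other, scaled to a negative control siRNA, with robust z-scores and luciferase per cell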
- Direction: total luciferase, z-score: higher = more reporter protein produced
- Rule for the call: 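Active when the median/MAD z-score for overall luciferase is greater than 3; a gene was taken forward for validation with new siRNAs if at least two of its three siRNAs passed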
- Calls: active = raised luciferase; inactive = no rise

OR2Z1 (GeneID 284383) [SID160763300]
- total luciferase, z-score: 1.56
- Outcome: inactive

OR2Z1 (GeneID 284383) [SID160763301]
- total luciferase, z-score: -3.33
- Outcome: inactive

OR2Z1 (GeneID 284383) [SID160763302]
- total luciferase, z-score: 1.43
- Outcome: inactive

DNM1P31 (GeneID 644153) [SID160725714]
- total luciferase, z-score: -0.512
- Outcome: inactive

DNM1P31 (GeneID 644153) [SID160725715]
- total luciferase, z-score: 1.25
- Outcome: inactive

DNM1P31 (GeneID 644153) [SID160769125]
- total luciferase, z-score: 2
- Outcome: inactive

N4BP2L1 (GeneID 90634) [SID160753766]
- total luciferase, z-score: 3.21
- Outcome: active

N4BP2L1 (GeneID 90634) [SID160753767]
- total luciferase, z-score: -2.04
- Outcome: inactive

N4BP2L1 (GeneID 90634) [SID160753768]
- total luciferase, z-score: 0.996
- Outcome: inactive

FAM245A (GeneID 728218) [SID160771594]
- total luciferase, z-score: -0.549
- Outcome: inactive

FAM245A (GeneID 728218) [SID160771595]
- total luciferase, z-score: 0.0139
- Outcome: inactive

FAM245A (GeneID 728218) [SID160771596]
- total luciferase, z-score: -0.997
- Outcome: inactive

ARIH1 (GeneID 25820) [SID160730903]
- total luciferase, z-score: 0.221
- Outcome: inactive

ARIH1 (GeneID 25820) [SID160758095]
- total luciferase, z-score: -0.142
- Outcome: inactive

ARIH1 (GeneID 25820) [SID160758196]
- total luciferase, z-score: 0.134
- Outcome: inactive

TRHR (GeneID 7201) [SID160718336]
- total luciferase, z-score: 0.76
- Outcome: inactive

TRHR (GeneID 7201) [SID160718337]
- total luciferase, z-score: 0.0878
- Outcome: inactive

TRHR (GeneID 7201) [SID160718338]
- total luciferase, z-score: -0.736
- Outcome: inactive

Copied from above, 5 entries:
FAM245A (GeneID 728218) [SID160771596]
- total luciferase, z-score: -0.997
- Outcome: inactive

ARIH1 (GeneID 25820) [SID160730903]
- total luciferase, z-score: 0.221
- Outcome: inactive

ARIH1 (GeneID 25820) [SID160758095]
- total luciferase, z-score: -0.142
- Outcome: inactive

ARIH1 (GeneID 25820) [SID160758196]
- total luciferase, z-score: 0.134
- Outcome: inactive

TRHR (GeneID 7201) [SID160718336]
- total luciferase, z-score: 0.76
- Outcome: inactive

Additional results:
WASHC2A (GeneID 387680) [SID160733622]
- total luciferase, z-score: 0.392
- Outcome: inactive

WASHC2A (GeneID 387680) [SID160744249]
- total luciferase, z-score: -0.539
- Outcome: inactive

WASHC2A (GeneID 387680) [SID160744250]
- total luciferase, z-score: 0.422
- Outcome: inactive

MEP1B (GeneID 4225) [SID160777163]
- total luciferase, z-score: -0.196
- Outcome: inactive

MEP1B (GeneID 4225) [SID160777164]
- total luciferase, z-score: -0.836
- Outcome: inactive

MEP1B (GeneID 4225) [SID160777165]
- total luciferase, z-score: 0.987
- Outcome: inactive

LAYN (GeneID 143903) [SID160758080]
- total luciferase, z-score: -0.496
- Outcome: inactive

LAYN (GeneID 143903) [SID160758081]
- total luciferase, z-score: -0.665
- Outcome: inactive

LAYN (GeneID 143903) [SID160758082]
- total luciferase, z-score: 1.06
- Outcome: inactive

FBN2 (GeneID 2201) [SID160764167]
- total luciferase, z-score: 1.41
- Outcome: inactive

FBN2 (GeneID 2201) [SID160764177]
- total luciferase, z-score: -0.867
- Outcome: inactive

FBN2 (GeneID 2201) [SID160764186]
- total luciferase, z-score: 0.867
- Outcome: inactive

SCP2 (GeneID 6342) [SID160727855]
- total luciferase, z-score: 0.885
- Outcome: inactive

SCP2 (GeneID 6342) [SID160727856]
- total luciferase, z-score: -1.55
- Outcome: inactive

SCP2 (GeneID 6342) [SID160727857]
- total luciferase, z-score: -0.406
- Outcome: inactive
